In doi:10.1101/2022.01.04.474899 (bioRxiv, 2022):
These are yes or no findings as the source states them, for the method shown. Some results given as binding are weak or reduced against the parent protein; the word gives no strength.

Sequences of proteins named here, by UniProt entry; tags and fusion partners are left off. Residues count along the entry.
UniProt P35555, residues 2732-2871: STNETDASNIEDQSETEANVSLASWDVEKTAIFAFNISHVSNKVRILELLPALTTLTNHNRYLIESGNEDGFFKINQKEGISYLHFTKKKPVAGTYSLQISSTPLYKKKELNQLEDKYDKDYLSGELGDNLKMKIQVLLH
UniProt Q61554, residues 2734-2873: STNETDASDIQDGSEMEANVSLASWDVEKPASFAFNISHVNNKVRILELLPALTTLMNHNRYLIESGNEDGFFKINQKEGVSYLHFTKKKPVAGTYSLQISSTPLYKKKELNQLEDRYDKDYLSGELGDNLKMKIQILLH

Experiments:
[1] = biological target: asprosin-2×Strep-tag II overexpressed in 3T3-L1 cells (human) (UniProt P35555); test: SDS-PAGE immunoblot
[2] = biological target: endogenous human asprosin (human (endogenous in U2OS, WI-26, RPE)) (UniProt P35555); test: native gel or EMSA
[3] = biological target: endogenous human asprosin (human (endogenous in U2OS, WI-26, RPE)) (UniProt P35555); test: SDS-PAGE immunoblot
[4] = biological target: endogenous mouse asprosin (mouse (endogenous in C2C12)) (UniProt Q61554); test: SDS-PAGE immunoblot

Substance: asprosin-2×Strep-tag II overexpressed in 3T3-L1 cells (from UniProt P35555 2732-2871)
- binding [1]: binds

Substance: endogenous human asprosin (from UniProt P35555 2732-2871)
- binding [2]: binds
- binding [3]: binds

Substance: endogenous mouse asprosin (from UniProt Q61554 2734-2873)
- binding [4]: binds
